Results are given in words; binding and its absence hold for the method and conditions named. In cells and extracts the contact can be indirect. Some entries that bind do so weakly or less than the wild type. For some of these results: Where a sequence is shown, tags or fusion partners need not be part of it.
How the values were obtained:
[1] = target: T1, RAB3A (endogenous) (human (endogenous in NCI-H1993 / NCI-H1975)) (UniProt P20336); experiment: co-IP; endogenous immunoprecipitation: lysate pre-cleared with Protein A/G Agarose, target antibody overnight, Protein A/G Agarose capture, western blot, IgG control; for BAG6-EP300 NCI-H1993 cells with or without RAB3A knockdown
T1 sequence: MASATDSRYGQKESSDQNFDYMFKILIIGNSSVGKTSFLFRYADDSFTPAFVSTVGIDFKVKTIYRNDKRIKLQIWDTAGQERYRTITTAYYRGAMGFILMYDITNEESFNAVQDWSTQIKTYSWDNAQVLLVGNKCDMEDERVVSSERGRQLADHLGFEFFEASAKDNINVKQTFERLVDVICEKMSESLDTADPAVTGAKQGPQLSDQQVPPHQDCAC

Amino acid sequences for entries named in this document (tags omitted).
UniProt P46379: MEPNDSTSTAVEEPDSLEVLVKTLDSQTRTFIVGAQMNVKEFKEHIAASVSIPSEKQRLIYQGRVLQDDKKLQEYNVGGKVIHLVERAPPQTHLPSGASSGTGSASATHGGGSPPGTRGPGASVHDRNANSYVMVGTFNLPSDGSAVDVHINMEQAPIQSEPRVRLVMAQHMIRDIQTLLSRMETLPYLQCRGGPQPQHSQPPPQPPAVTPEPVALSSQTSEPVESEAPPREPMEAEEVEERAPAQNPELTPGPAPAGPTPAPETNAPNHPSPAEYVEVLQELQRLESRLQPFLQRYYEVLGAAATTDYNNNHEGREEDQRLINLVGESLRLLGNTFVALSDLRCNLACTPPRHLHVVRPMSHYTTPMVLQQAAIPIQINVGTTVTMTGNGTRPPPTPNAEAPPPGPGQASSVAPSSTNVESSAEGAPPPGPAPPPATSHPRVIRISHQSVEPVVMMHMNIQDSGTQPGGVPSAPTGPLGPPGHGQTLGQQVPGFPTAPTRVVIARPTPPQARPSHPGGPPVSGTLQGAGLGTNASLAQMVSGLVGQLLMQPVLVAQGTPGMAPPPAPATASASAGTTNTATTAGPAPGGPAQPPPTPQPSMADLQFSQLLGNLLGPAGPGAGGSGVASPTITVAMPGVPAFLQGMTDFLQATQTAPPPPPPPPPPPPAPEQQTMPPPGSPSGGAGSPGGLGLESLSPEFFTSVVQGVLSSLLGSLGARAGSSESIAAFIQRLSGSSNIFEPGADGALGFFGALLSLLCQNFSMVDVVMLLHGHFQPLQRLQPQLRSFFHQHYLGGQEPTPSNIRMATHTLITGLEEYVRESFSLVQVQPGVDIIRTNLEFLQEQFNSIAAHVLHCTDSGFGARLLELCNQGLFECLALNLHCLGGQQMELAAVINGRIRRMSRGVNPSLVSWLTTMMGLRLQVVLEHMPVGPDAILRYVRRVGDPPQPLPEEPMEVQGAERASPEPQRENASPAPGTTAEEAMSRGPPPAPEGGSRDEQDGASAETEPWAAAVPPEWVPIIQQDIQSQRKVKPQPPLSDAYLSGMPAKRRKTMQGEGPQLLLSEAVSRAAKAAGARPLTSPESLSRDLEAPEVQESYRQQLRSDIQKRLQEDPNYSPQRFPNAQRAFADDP
UniProt Q09472: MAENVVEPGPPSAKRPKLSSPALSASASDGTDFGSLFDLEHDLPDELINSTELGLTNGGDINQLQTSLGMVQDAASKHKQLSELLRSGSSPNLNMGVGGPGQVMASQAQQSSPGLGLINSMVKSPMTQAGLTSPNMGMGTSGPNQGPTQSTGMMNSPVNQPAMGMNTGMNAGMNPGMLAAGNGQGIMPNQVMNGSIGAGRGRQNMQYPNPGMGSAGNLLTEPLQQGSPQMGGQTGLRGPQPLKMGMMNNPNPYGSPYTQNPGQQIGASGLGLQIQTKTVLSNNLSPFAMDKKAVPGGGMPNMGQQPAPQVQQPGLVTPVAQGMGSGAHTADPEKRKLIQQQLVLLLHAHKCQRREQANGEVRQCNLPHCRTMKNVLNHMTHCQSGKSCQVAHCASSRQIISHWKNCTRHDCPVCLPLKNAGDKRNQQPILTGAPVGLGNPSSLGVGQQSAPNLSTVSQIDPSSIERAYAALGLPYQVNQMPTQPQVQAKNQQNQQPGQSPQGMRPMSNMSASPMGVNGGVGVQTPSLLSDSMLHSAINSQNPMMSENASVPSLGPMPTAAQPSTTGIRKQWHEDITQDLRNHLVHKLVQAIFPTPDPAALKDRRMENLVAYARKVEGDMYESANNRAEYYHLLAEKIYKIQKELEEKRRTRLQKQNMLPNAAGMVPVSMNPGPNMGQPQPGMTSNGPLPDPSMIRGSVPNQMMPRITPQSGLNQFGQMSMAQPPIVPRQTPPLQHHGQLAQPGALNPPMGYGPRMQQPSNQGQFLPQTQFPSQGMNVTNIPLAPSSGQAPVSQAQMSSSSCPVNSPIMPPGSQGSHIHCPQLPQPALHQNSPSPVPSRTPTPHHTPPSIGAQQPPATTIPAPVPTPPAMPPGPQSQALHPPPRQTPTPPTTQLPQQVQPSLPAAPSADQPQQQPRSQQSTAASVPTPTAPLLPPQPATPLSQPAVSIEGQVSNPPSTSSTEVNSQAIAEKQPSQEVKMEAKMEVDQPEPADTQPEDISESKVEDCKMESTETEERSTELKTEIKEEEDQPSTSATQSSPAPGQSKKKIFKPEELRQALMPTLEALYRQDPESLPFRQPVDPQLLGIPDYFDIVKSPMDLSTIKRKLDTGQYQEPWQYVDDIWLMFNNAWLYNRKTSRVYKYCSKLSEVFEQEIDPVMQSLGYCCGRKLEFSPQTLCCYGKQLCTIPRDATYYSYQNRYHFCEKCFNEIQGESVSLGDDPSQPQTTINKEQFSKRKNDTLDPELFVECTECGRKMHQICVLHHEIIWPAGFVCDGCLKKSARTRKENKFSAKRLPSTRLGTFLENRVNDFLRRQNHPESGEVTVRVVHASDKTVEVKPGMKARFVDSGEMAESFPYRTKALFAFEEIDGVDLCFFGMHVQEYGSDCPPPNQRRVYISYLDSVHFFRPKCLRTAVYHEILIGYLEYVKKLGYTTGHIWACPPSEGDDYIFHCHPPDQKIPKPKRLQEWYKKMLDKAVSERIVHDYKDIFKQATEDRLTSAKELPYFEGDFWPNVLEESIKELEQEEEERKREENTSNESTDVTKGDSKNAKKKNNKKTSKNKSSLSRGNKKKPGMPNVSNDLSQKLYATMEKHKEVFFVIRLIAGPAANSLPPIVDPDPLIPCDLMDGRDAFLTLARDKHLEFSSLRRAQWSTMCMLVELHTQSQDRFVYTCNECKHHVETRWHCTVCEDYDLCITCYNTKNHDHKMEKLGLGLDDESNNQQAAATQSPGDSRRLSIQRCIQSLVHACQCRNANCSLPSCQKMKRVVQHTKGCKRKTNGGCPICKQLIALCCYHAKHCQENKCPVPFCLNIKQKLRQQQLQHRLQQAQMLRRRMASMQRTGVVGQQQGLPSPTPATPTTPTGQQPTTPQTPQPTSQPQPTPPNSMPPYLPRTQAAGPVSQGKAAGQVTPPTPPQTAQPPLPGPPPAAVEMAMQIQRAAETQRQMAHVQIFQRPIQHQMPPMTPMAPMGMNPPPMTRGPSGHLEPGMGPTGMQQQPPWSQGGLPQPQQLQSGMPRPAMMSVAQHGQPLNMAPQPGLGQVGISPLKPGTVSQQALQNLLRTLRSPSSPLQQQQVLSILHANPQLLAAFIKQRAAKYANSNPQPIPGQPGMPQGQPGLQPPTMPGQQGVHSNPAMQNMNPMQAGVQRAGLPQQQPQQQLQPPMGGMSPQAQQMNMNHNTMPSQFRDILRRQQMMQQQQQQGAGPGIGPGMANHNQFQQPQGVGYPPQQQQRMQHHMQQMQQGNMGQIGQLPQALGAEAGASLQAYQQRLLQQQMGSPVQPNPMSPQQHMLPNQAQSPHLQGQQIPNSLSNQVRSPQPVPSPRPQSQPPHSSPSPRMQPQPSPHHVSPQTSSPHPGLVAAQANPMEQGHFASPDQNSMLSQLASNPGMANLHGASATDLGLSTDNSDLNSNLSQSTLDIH

[2] = target: T1, RAB3A (endogenous) (human (endogenous in NCI-H1993 / NCI-H1975)); experiment: co-IP; Co-IP from purified mitochondrial lysates (mitochondrial fractions)
RAB3A-Flag = target: T2, RAB3A-Flag (UniProt P20336); experiment: co-IP; HEK-293T cells co-transfected with RAB3A-Flag and BAG6-HA, lysed in IP Lysis Buffer, anti-tag beads 3 h at 4 °C, western blot; reciprocal
T2 sequence: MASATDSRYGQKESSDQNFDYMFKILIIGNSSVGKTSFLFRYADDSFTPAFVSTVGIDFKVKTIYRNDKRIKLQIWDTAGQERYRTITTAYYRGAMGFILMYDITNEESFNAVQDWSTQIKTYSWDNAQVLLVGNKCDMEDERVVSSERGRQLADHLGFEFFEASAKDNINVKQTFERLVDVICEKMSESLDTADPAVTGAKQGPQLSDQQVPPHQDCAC

[3] = target: BAG6 (endogenous) (human (endogenous in NCI-H1993)) (UniProt P46379); experiment: co-IP; endogenous immunoprecipitation: lysate pre-cleared with Protein A/G Agarose, target antibody overnight, Protein A/G Agarose capture, western blot, IgG control; for BAG6-EP300 NCI-H1993 cells with or without RAB3A knockdown
BAG6-HA [4] = target: BAG6-HA (UniProt P46379); experiment: co-IP; HEK-293T cells transfected with EP300-Flag and BAG6-HA with or without RAB3A-V5, anti-tag beads, western blot
BAG6-HA [5] = target: BAG6-HA (UniProt P46379); experiment: co-IP; HEK-293T cells co-transfected with RAB3A-Flag and BAG6-HA, lysed in IP Lysis Buffer, anti-tag beads 3 h at 4 °C, western blot; reciprocal

Q: Which results are given for “BAG6 (endogenous) (from UniProt P46379 1-1132)”?
A: binding [1]: binds; binding [2]: binds

Q: Which binding (RAB3A-Flag) does the source give for BAG6-HA (from UniProt P46379 1-1132) here?
A: binds

Q: How did the binding [3] turn out when “EP300 (endogenous) (from UniProt Q09472 1-2414)” was run?
A: binds

Q: How did the binding (BAG6-HA [4]) turn out when EP300-Flag (from UniProt Q09472 1-2414) was run?
A: binds

B1: RAB3A-Flag (protein, UniProt P20336 1-220)
chain: MASATDSRYGQKESSDQNFDYMFKILIIGNSSVGKTSFLFRYADDSFTPAFVSTVGIDFKVKTIYRNDKRIKLQIWDTAGQERYRTITTAYYRGAMGFILMYDITNEESFNAVQDWSTQIKTYSWDNAQVLLVGNKCDMEDERVVSSERGRQLADHLGFEFFEASAKDNINVKQTFERLVDVICEKMSESLDTADPAVTGAKQGPQLSDQQVPPHQDCAC
Q: Which binding (BAG6-HA [5]) does the source give for B1 here?
A: binds

B2: RAB3A-V5 (protein, UniProt P20336 1-220)
chain: MASATDSRYGQKESSDQNFDYMFKILIIGNSSVGKTSFLFRYADDSFTPAFVSTVGIDFKVKTIYRNDKRIKLQIWDTAGQERYRTITTAYYRGAMGFILMYDITNEESFNAVQDWSTQIKTYSWDNAQVLLVGNKCDMEDERVVSSERGRQLADHLGFEFFEASAKDNINVKQTFERLVDVICEKMSESLDTADPAVTGAKQGPQLSDQQVPPHQDCAC
Q: B2 was tested. Which binding (BAG6-HA [4]) did it give?
A: binds
